For four molecules, binding results are on record in PMC7802242, “The nuclear lamina is a hub for the nuclear function of Jacob” (Molecular Brain, 2021).

Sequences of proteins named here, by UniProt entry; tags and fusion partners are left off.
UniProt O14980: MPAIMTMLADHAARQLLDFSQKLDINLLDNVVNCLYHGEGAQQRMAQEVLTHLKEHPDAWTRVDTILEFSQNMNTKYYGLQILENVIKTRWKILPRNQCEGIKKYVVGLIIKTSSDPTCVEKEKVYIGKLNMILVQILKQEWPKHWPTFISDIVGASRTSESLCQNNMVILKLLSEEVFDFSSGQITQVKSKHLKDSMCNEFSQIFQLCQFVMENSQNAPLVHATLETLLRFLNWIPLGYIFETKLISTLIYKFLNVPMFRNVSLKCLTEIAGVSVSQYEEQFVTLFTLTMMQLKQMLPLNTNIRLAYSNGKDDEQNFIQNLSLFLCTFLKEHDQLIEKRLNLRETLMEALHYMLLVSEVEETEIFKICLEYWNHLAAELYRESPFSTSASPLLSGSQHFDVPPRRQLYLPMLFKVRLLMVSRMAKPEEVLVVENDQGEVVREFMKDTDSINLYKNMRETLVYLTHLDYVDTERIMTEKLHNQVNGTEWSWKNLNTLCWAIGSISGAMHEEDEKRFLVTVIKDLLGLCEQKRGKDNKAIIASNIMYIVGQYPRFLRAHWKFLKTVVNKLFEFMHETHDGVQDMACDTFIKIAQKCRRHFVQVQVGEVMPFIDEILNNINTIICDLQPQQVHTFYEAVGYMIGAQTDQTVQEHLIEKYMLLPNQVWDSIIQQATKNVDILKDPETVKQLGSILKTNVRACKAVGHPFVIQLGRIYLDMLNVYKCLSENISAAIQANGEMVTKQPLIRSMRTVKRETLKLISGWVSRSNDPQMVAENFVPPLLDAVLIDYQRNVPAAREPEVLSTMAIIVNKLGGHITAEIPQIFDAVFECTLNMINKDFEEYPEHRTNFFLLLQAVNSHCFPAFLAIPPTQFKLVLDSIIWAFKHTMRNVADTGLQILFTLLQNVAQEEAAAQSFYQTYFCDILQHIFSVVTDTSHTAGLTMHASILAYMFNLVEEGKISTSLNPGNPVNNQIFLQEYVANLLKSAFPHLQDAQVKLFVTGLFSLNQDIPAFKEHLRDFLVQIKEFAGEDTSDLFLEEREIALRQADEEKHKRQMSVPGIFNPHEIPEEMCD
UniProt P20700: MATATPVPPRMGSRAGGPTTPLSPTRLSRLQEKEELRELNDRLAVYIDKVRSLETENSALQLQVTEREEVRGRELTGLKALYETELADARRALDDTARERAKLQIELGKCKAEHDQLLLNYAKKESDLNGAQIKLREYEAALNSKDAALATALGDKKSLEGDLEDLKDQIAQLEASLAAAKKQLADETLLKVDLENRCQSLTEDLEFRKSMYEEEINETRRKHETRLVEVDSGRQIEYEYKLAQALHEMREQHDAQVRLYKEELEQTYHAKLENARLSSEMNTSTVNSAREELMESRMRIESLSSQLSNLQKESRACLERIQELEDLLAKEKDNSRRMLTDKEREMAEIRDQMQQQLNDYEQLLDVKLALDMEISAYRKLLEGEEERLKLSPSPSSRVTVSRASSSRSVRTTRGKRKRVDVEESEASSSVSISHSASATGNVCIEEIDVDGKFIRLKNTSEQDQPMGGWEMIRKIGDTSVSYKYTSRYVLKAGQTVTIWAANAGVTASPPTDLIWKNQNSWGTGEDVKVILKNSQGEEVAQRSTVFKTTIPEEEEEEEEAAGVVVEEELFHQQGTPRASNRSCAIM

Positions count from the first letter of the chain named. Results are given in words; binding and its absence hold for the method and conditions named. For some of these results: In cells and extracts the contact can be indirect. Some binding calls cover weakened binding; strength is not graded here. For some of these results: Where a sequence is shown, tags or fusion partners need not be part of it.

In one assay the target is T1, MBP-45-532-Jacob (rat) (UniProt Q9EPI6).
T1 sequence: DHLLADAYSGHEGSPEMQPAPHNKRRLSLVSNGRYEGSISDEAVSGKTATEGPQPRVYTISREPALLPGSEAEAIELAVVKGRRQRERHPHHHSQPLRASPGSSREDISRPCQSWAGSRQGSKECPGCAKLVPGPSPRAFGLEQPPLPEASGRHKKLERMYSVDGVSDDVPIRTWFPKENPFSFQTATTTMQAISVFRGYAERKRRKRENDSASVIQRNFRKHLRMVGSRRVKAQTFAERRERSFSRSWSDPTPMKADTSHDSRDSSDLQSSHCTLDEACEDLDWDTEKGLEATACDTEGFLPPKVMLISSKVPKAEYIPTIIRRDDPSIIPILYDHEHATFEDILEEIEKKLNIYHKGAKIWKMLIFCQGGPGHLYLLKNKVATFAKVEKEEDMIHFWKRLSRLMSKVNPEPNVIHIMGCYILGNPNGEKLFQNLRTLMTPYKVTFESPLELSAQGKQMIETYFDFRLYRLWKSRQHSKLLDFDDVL
The experiment in a line: pull-down; amylose-MBP-45-532-Jacob incubated with HEK293T cell extract expressing CRM1 overnight at 4 °C; Western blot; only the target purified. For orientation: Immunoblotting shows a protein as a band on a membrane.

The target in a further assay is T2, WT-Jacob-Myc (rat) (UniProt Q9EPI6).
T2 sequence: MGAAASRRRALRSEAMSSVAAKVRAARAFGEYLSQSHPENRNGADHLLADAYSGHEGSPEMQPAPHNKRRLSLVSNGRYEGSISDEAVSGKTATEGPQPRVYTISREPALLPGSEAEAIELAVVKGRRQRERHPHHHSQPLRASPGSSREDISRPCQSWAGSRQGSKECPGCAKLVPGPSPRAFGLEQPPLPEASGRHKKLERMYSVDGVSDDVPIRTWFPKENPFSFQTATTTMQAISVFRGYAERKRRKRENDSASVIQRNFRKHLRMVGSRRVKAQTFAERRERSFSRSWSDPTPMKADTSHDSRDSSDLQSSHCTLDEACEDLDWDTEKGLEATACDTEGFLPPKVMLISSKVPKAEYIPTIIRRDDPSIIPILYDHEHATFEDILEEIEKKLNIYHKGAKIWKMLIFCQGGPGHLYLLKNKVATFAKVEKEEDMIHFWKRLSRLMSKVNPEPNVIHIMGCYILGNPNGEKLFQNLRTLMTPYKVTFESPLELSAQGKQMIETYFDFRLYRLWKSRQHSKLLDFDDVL
The experiment in a line: co-IP; HEK293T cells co-transfected with WT-Jacob-Myc and TagRFP-LaminB1; lysis in RIPA buffer (50 mM Tris-HCl pH 7.4, 150 mM NaCl, 1% Triton X-100, 0.1% SDS); anti-Myc antibody-coated magnetic beads; Western blot.

In assay [1] the target is T3, MBP-45-532-Jacob-L476A (rat) (UniProt Q9EPI6).
T3 sequence: T1 sequence with L432A
The experiment in a line: pull-down; amylose-MBP matrix alone or coupled with MBP-Jacob proteins, washed in 20 mM Tris pH 7.5, 1 mM DTT, 3 mM EDTA, 100 mM NaCl, 0.3% TritonX-100; incubated with 20 μg of untagged LaminB1 or untagged CRM1 overnight at 4 °C; Western blot; both purified.

The target of assay [2] is T4, Jacob (endogenous) (rat (endogenous in hippocampal primary neurons)) (UniProt Q9EPI6).
T4 sequence: T2 sequence
The assay can be described thus: proximity ligation; Duolink PLA with anti-Jacob and anti-LaminB1 antibodies in fixed rat hippocampal primary neurons; confocal and STED imaging.

As to “CRM1 in HEK293T cell extract (from UniProt O14980 1-1071)”, in the assay with MBP-45-532-Jacob (rat), the binding entry is on record as “binds”.

On to “mTagRFP-hLaminB1 (from UniProt P20700 1-586)”, for which the binding result with WT-Jacob-Myc (rat) was “binds”.

On to “untagged-CRM1 (from UniProt O14980 1-1071)”, for which the binding entry in assay [1] is “no binding (tested: 20 μg of untagged CRM1)”.

B1: LaminB1 (endogenous) (protein, UniProt P70615 1-587)
chain: MATATPVQQRAGSRASAPATPFSPTRLSRLQEKEELRELNDRLAVYIDKVRSLETENSALQLQVTEREEVRGRELTGLKALYETELADARRALDDTARERAKLQIELGKFKAEHDQLLLNYAKKESDLSGAQIKLREYEAALNSKDAALATALGDKKSLEGDLEDLKDQIAQLEASLSAAKKQLADETLLKVDLENRCQSLTEDLEFRKNMYEEEINETRRKHETRLVEVDSGRQIEYEYKLAQALHEMREQHDAQVRLYKEELEQTYHAKLENARLSSEMNTSTVNSARGGMMESRMRIESLSSQLSNLQKDSRACLERIQELEDMLAKERDNSRRMLSDKEREMAEIRDQMQQQLNDYEQLLDVKLALDMEISAYRKLLEGEEERLKLSPSPSSRVTVSRASSSRSVRTTRGKRKRVDVEESEASSSVSISHSASATGNVCIEEIDVDGKFIRLKNTSEQDQPMGGWEMIRKIGDTSVSYKYTSRYVLKAGQTVTVWAANAGVTASPPTDLIWKNQNSWGTGEDVKVVLKNSQGEEVAQRSTVFKTTIPEEEEEEEEEPIGVPLEEERFHQQGTPRASNKSCAIM
Turning to B1, the binding entry in assay [2] was “binds”.
